Where a chain is given by its changes, count along the chain named. Construct, isoform or probe ends are uncertain for at least one entry. For some assays here: A negative result means that nothing was seen under these conditions. Tags and fusion partners may be left off the protein sequences shown. For some assays here: At least one verdict rests on a figure or table, not on a statement of the authors.
How the values were obtained:
[1] = molecular target: T1, native CPD photolyase Norin 1 (P78-R126-G283-Q296) (Oryza sativa ssp. japonica cv. Norin 1) (UniProt Q6F6A2); assay: pull-down (DNA affinity purification); settings: dim red light, strand 2 UV-irradiated (254 nm, 8 h), CPDs at undefined positions, Bead purification: same buffer plus 10% glycerol, 4 C, native protein, label: 5'-biotin on strand 1, streptavidin beads
T1 sequence (looked up, limits assumed): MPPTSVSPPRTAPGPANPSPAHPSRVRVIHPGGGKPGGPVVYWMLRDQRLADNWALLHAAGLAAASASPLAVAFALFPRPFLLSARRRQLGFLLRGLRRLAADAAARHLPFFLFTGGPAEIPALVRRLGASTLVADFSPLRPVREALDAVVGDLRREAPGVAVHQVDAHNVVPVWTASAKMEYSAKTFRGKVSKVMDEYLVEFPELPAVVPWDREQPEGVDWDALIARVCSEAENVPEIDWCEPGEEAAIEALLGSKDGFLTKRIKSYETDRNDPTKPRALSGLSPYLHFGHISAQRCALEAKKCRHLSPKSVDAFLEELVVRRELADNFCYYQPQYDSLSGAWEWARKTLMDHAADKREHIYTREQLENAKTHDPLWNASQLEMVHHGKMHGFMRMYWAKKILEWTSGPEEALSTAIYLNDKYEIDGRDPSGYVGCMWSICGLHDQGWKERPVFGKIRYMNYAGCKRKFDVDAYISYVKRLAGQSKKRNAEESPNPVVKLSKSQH

[2] = molecular target: T2, native CPD photolyase TOG12380 (P78-R126-A283-Q296) G283A (Oryza glaberrima TOG12380) (UniProt Q6F6A2); assay: pull-down (DNA affinity purification); settings: dim red light, strand 2 UV-irradiated (254 nm, 8 h), CPDs at undefined positions, Bead purification: same buffer plus 10% glycerol, 4 C, native protein, label: 5'-biotin on strand 1, streptavidin beads
T2 sequence (looked up, limits assumed): T1 sequence (looked up, limits assumed) with G283A

[3] = molecular target: T3, native CPD photolyase TOS7940 (Sur-type, P78-R126-G283-H296) Q296H (UniProt Q6F6A2); assay: pull-down (DNA affinity purification); settings: dim red light, strand 2 UV-irradiated (254 nm, 8 h), CPDs at undefined positions, Bead purification: same buffer plus 10% glycerol, 4 C, native protein, label: 5'-biotin on strand 1, streptavidin beads
T3 sequence (looked up, limits assumed): T1 sequence (looked up, limits assumed) with Q296H

[4] = molecular target: T4, native CPD photolyase TOB7307 (S78-R126-A283-Q296) P78S,G283A (Oryza barthii TOB7307) (UniProt Q6F6A2); assay: pull-down (DNA affinity purification); settings: dim red light, strand 2 UV-irradiated (254 nm, 8 h), CPDs at undefined positions, Bead purification: same buffer plus 10% glycerol, 4 C, native protein, label: 5'-biotin on strand 1, streptavidin beads
T4 sequence (looked up, limits assumed): T1 sequence (looked up, limits assumed) with P78S, G283A

[5] = molecular target: T5, native CPD photolyase Surjamkhi (Sur-type, P78-R126-G283-H296) Q296H (Oryza sativa ssp. indica cv. Surjamkhi) (UniProt Q6F6A2); assay: pull-down (DNA affinity purification); settings: dim red light, strand 2 UV-irradiated (254 nm, 8 h), CPDs at undefined positions, Bead purification: same buffer plus 10% glycerol, 4 C, native protein, label: 5'-biotin on strand 1, streptavidin beads
T5 sequence (looked up, limits assumed): T1 sequence (looked up, limits assumed) with Q296H

[6] = molecular target: T6, native CPD photolyase Sasanishiki (P78-Q126-G283-Q296) (Oryza sativa ssp. japonica cv. Sasanishiki) (UniProt Q6F6A2); assay: pull-down (DNA affinity purification); settings: dim red light, strand 2 UV-irradiated (254 nm, 8 h), CPDs at undefined positions, Bead purification: same buffer plus 10% glycerol, 4 C, native protein, label: 5'-biotin on strand 1, streptavidin beads
T6 sequence (looked up, limits assumed): T1 sequence (looked up, limits assumed) with R126Q

[7] = molecular target: T7, CPD photolyase Sasanishiki-type (P78-Q126-G283-Q296) (Oryza sativa ssp. japonica cv. Sasanishiki) (UniProt Q6F6A2); assay: EMSA; settings: dark, 2 mM DTT, 80 mM NaCl, 25 C, 15 min, 0.3 pmol DNA, 0-400 ng protein, recombinant protein, protein details: N-terminal GST, removed by thrombin, label: 5'-32P on strand 1
T7 sequence (looked up, limits assumed): T1 sequence (looked up, limits assumed) with R126Q

Question: Which results are given for “ATGGCGCCAGACGTACTAATGTGTATACACGCGTGCATGATC (double strand) [UV-irradiated 42-mer duplex on magnetic beads]”?
Answer: binding result [1]: binds; binding result [2]: binds; binding result [3]: binds; binding result [4]: binds; binding result [5]: binds; binding result [6]: binds

Question: Does “CACGTACGCATCTTCTACGTACCGACAGTC (double strand) [30-mer duplex with thymine dimer (CPD)]” bind ([7]; central thymine dimer (CPD) in strand 1, only central TT is T13-T14, EMSA: 40 mM potassium phosphate pH 7.2, 5 mM EDTA)?
Answer: Result: binds

Question: Does “CACGTACGCATCTTCTACGTACCGACAGTC (double strand) [30-mer duplex without CPD]” bind ([7]; EMSA: 40 mM potassium phosphate pH 7.2, 5 mM EDTA)?
Answer: Result: no binding

Reference: article PMC7035317
